Source: paper PMC6010280
Results are given in words; binding and its absence hold for the method and conditions named. Binding seen in cells or lysates may run through a third protein. A yes stands for co-enrichment or nearness to the bait. Other partners may have been found. A no says only that the protein was not detected with the bait. Each block holds one binder with its values, some of them ahead of it.

Molecular target: T1, intein-BHMT (betaine homocysteine S-methyltransferase) (R. norvegicus) (UniProt O09171)
T1 sequence: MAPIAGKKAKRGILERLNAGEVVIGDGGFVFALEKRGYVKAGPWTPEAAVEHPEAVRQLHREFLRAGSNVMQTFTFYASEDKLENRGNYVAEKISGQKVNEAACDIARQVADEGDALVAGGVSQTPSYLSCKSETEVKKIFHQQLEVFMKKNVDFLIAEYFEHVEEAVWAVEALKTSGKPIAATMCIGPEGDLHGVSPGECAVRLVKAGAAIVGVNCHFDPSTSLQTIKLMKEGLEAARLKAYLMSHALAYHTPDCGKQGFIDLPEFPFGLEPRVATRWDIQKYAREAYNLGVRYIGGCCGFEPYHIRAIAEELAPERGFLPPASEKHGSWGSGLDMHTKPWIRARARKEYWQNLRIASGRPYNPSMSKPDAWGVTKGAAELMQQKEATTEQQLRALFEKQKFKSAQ
Experiment: affinity purification with mass spectrometry; same columns; all eluates of the intein-BHMT column compared with those of the bead-only and intein columns; only the target purified

- binding: no binding
B1: carbamoyl phosphate synthetase 1 (protein, UniProt P07756 39-1500)
chain: LSVKAQTAHIVLEDGTKMKGYSFGHPSSVAGEVVFNTGLGGYSEALTDPAYKGQILTMANPIIGNGGAPDTTARDELGLNKYMESDGIKVAGLLVLNYSHDYNHWLATKSLGQWLQEEKVPAIYGVDTRMLTKIIRDKGTMLGKIEFEGQSVDFVDPNKQNLIAEVSTKDVKVFGKGNPTKVVAVDCGIKNNVIRLLVKRGAEVHLVPWNHDFTQMDYDGLLIAGGPGNPALAQPLIQNVKKILESDRKEPLFGISTGNIITGLAAGAKSYKMSMANRGQNQPVLNITNRQAFITAQNHGYALDNTLPAGWKPLFVNVNDQTNEGIMHESKPFFAVQFHPEVSPGPTDTEYLFDSFFSLIKKGKGTTITSVLPKPALVASRVEVSKVLILGSGGLSIGQAGEFDYSGSQAVKAMKEENVKTVLMNPNIASVQTNEVGLKQADAVYFLPITPQFVTEVIKAERPDGLILGMGGQTALNCGVELFKRGVLKEYGVKVLGTSVESIMATEDRQLFSDKLNEINEKIAPSFAVESMEDALKAADTIGYPVMIRSAYALGGLGSGICPNKETLMDLGTKAFAMTNQILVERSVTGWKEIEYEVVRDADDNCVTVCNMENVDAMGVHTGDSVVVAPAQTLSNAEFQMLRRTSINVVRHLGIVGECNIQFALHPTSMEYCIIEVNARLSRSSALASKATGYPLAFIAAKIALGIPLPEIKNVVSGKTSACFEPSLDYMVTKIPRWDLDRFHGTSSRIGSSMKSVGEVMAIGRTFEESFQKALRMCHPSVDGFTPRLPMNKEWPANLDLRKELSEPSSTRIYAIAKALENNMSLDEIVKLTSIDKWFLYKMRDILNMDKTLKGLNSESVTEETLRQAKEIGFSDKQISKCLGLTEAQTRELRLKKNIHPWVKQIDTLAAEYPSVTNYLYVTYNGQEHDIKFDEHGIMVLGCGPYHIGSSVEFDWCAVSSIRTLRQLGKKTVVVNCNPETVSTDFDECDKLYFEELSLERILDIYHQEACNGCIISVGGQIPNNLAVPLYKNGVKIMGTSPLQIDRAEDRSIFSAVLDELKVAQAPWKAVNTLNEALEFANSVGYPCLLRPSYVLSGSAMNVVFSEDEMKRFLEEATRVSQEHPVVLTKFIEGAREVEMDAVGKEGRVISHAISEHVEDAGVHSGDATLMLPTQTISQGAIEKVKDATRKIAKAFAISGPFNVQFLVKGNDVLVIECNLRASRSFPFVSKTLGVDFIDVATKVMIGESVDEKHLPTLEQPIIPSDYVAIKAPMFSWPRLRDADPILRCEMASTGEVACFGEGIHTAFLKAMLSTGFKIPQKGILIGIQQSFRPRFLGVAEQLHNEGFKLFATEATSDWLNANNVPATPVAWPSQEGQNPSLSSIRKLIRDGSIDLVINLPNNNTKFVHDNYVIRRTAVDSGIALLTNFQVTKLFAEAVQKARTVDSKSLFHYRQYSAGKAA

- binding: no binding
B2: 10-formyltetrahydrofolate dehydrogenase (Aldh1l1) (protein, UniProt P28037 1-902)
chain: MKIAVIGQSLFGQEVYCQLRKEGHEVVGVFTIPDKDGKADPLGLEAEKDGVPVFKFPRWRARGQALPEVVAKYQALGAELNVLPFCSQFIPMEVINAPRHGSIIYHPSLLPRHRGASAINWTLIHGDKKGGFTIFWADDGLDTGDLLLQKECEVLPDDTVSTLYNRFLFPEGIKGMVQAVRLIAEGTAPRCPQSEEGATYEGIQKKETAKINWDQPAEAIHNWIRGNDKVPGAWTEACGQKLTFFNSTLNTSGLSTQGEALPIPGAHRPGVVTKAGLILFGNDDRMLLVKNIQLEDGKMMPASQFFKGSASSDLELTEAELATAEAVRSSWMRILPNVPEVEDSTDFFKSGAASVDVVRLVEEVKELCDGLELENEDVYMATTFRGFIQLLVRKLRGEDDESECVINYVEKAVNKLTLQMPYQLFIGGEFVDAEGSKTYNTINPTDGSVICQVSLAQVSDVDKAVAAAKEAFENGLWGKINARDRGRLLYRLADVMEQHQEELATIEALDAGAVYTLALKTHVGMSIQTFRYFAGWCDKIQGATIPINQARPNRNLTLTKKEPVGVCGIVIPWNYPLMMLSWKTAACLAAGNTVVIKPAQVTPLTALKFAELTLKAGIPKGVVNILPGSGSLVGQRLSDHPDVRKIGFTGSTEVGKHIMKSCALSNVKKVSLELGGKSPLIIFADCDLNKAVQMGMSSVFFNKGENCIAAGRLFVEESIHNQFVQKVVEEVEKMKIGNPLERDTNHGPQNHEAHLRKLVEYCQRGVKEGATLVCGGNQVPRPGFFFQPTVFTDVEDHMYIAKEESFGPIMIISRFADGDVDAVLSRANATEFGLASGVFTRDINKALYVSDKLQAGTVFINTYNKTDVAAPFGGFKQSGFGKDLGEAALNEYLRIKTVTFEY
